Data source: PubChem BioAssay AID686943 (Drosophila RNAi Screening Center, 2013)
The deposit covers about 23,000 reagents; shown is an unselected part of those with a known target gene and a result. 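Extra replicates exist only for a retested subset of genes; insulin dose and duration not given; both raised and lowered dpERK matter.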 Further read-outs or replicates are left out here. Not given: the amount of reagent, the time to read-out.

Purpose: 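Knockdowns that increase or decrease active ERK after insulin receptor stimulation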 (primary screen)
Cell system: Drosophila S2R+ haemocyte-like cells expressing YFP-tagged ERK (Rolled)
Knock-down reagent: long dsRNA against Drosophila genes
Challenge: insulin stimulation versus unstimulated cells; dose and duration not given
Read-out: 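Per-plate z-scores of phospho-ERK immunostaining normalised to YFP-tagged ERK, measured with and without insulin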
Scale: replicate 1, z-score of dpERK with insulin: higher = more active ERK per ERK-YFP after insulin

Polr3B [DRSC07536]
- replicate 1, z-score of dpERK with insulin: 1.16

CG9822 [DRSC04568]
- replicate 1, z-score of dpERK with insulin: -0.09

CG11438 [DRSC11660]
- replicate 1, z-score of dpERK with insulin: -0.58

CG34238 [DRSC09040]
- replicate 1, z-score of dpERK with insulin: 1.2

Continued (2 carried over from the part before).
CG11438 [DRSC11660]
- replicate 1, z-score of dpERK with insulin: -0.58

CG34238 [DRSC09040]
- replicate 1, z-score of dpERK with insulin: 1.2

CG44153 [DRSC01118]
- replicate 1, z-score of dpERK with insulin: -0.24

CG44153 [DRSC02228]
- replicate 1, z-score of dpERK with insulin: -0.04

CG44153 [DRSC02229]
- replicate 1, z-score of dpERK with insulin: -0.35

CG44153 [DRSC02231]
- replicate 1, z-score of dpERK with insulin: -0.21

CG44153 [DRSC02233]
- replicate 1, z-score of dpERK with insulin: -0.76

CG44153 [DRSC02902]
- replicate 1, z-score of dpERK with insulin: -0.67

CG44153 [DRSC02903]
- replicate 1, z-score of dpERK with insulin: -1.54

l(1)G0469 [DRSC19412]
- replicate 1, z-score of dpERK with insulin: 0.66

l(1)G0469 [DRSC19462]
- replicate 1, z-score of dpERK with insulin: -0.61
